# Inconclusive results, whose numbers are uncertain, are shown with a selection of clear calls. For part of these data: Potencies beside an inconclusive call are fits to weak or partial responses and may not hold up. For part of these data: A note “side channel” means that the fit belongs to a control or component signal, not to the main read-out. Activity calls are given as the source filed them. Unless noted, the call rests on the fitted dose curve; in most records, active means well fitted curve in the direction sought with a large enough effect; inconclusive means small, poorly fitted or top-dose-only effect, or another doubt; inactive means no such curve, though single readings can be large; an effect the other way counts as inactive or inconclusive.
# By UniProt entry, the sequences of proteins in these tests, tags left out. Where a name states a change or a piece, a line headed by the entry shows the natural chain unless it says otherwise.
# UniProt P19793: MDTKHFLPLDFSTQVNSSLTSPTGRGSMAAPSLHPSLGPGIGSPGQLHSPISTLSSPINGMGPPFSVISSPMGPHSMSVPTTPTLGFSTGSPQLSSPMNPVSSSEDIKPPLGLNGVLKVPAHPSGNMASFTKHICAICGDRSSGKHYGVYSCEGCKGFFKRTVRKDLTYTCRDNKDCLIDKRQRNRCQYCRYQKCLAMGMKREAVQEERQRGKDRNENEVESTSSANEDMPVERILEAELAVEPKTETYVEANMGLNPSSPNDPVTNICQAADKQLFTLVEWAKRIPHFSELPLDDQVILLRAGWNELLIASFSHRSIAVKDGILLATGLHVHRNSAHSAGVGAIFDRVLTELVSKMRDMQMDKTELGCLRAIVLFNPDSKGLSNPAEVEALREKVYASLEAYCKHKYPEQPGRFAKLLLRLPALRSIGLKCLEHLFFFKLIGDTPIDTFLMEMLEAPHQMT
# UniProt P10828: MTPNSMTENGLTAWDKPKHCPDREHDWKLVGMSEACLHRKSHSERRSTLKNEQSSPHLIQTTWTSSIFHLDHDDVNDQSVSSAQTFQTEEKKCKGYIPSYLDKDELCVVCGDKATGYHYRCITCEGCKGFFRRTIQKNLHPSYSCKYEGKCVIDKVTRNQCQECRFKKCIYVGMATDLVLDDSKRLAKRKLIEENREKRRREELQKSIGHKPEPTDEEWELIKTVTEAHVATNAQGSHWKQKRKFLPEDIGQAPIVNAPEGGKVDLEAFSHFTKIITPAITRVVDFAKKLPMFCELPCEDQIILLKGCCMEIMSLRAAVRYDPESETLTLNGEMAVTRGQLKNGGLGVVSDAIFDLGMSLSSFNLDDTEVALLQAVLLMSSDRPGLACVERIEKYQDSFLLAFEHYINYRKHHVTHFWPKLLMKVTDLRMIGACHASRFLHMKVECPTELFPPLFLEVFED
# UniProt P51449: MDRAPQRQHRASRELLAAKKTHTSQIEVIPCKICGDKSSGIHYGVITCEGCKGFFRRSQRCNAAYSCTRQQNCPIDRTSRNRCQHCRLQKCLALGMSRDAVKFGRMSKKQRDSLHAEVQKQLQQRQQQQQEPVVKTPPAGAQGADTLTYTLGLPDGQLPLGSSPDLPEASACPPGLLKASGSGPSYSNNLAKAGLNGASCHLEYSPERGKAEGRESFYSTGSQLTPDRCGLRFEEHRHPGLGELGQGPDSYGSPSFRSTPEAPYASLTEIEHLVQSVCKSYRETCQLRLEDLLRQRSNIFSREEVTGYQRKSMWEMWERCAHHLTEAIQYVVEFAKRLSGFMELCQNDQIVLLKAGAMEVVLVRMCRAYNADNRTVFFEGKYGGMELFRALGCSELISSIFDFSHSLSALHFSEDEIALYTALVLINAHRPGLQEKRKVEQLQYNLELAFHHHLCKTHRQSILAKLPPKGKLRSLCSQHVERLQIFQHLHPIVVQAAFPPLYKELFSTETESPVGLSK
# Tests used:
# [1] = Cell Viability - LYMP1-003 - Assay at 24 hr (AID 963); further: potency means the concentration at half of the fitted maximal effect
# Outline: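 Cytotoxicity is scored as a concentration-dependent fall in ATP-linked luciferase signal in human lymphoblastoid LYMP1-003 cells treated 24 hr at 37 C in complete culture medium.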
# [2] = Cell Viability - LYMP1-003 - Assay at 40 hr (AID 964); further: potency means the concentration at half of the fitted maximal effect; nearly all actives have a fitted effect of over 60% in size
# Outline: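 Luminescent ATP signal (CellTiter-Glo) served as the viability read-out after 40 hr compound treatment of human lymphoblastoid LYMP1-003 cells at 37 C. Decreases in ATP were fitted with the Hill equation to give AC50.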
# [3] = Cell Viability - LYMP2-004 (AID 966); further: potency means the concentration at half of the fitted maximal effect; nearly all actives have a fitted effect of over 65% in size
# Outline: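 qHTS cytotoxicity: human lymphoblastoid line, 24 hr compound treatment, 37 C, complete medium. Viability read as cellular ATP via luciferase luminescence; tetraoctylammonium bromide served as positive control.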
# [4] = Cell Viability - LYMP2-005 (AID 967); further: potency means the concentration at half of the fitted maximal effect
# Outline: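 LYMP2-005 human lymphoblastoid cells (2500/well) were treated with compounds for 24 h at 37 C. Intracellular ATP was then measured by CellTiter-Glo luminescence after 30 min at room temperature. AC50 values came from Hill-equation fits of qHTS concentration-response data.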
# [5] = Cell Viability - LYMP2-009 (AID 968); further: potency means the concentration at half of the fitted maximal effect; nearly all actives have a fitted effect of over 55% in size
# [6] = Cell Viability - LYMP2-025 (AID 976); conditions: LYMP2-025 lymphoblastoid cell viability; activity change, negative = cytotoxicity: at 92.2 µM (top of the series); further: potency means the concentration at half of the fitted maximal effect
# Outline: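 Acute cytotoxicity is scored as a concentration-dependent fall in intracellular ATP, measured by luciferase luminescence, in human lymphoblastoid LYMP2-025 cells exposed to compound for 24 hours at 37 C. AC50 values come from standard Hill fits.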
# [7] = Cell Viability - LYMP2-006 (AID 978); further: potency means the concentration at half of the fitted maximal effect; nearly all actives have a fitted effect of over 60% in size
# Outline: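 Potency values are Hill-fit AC50s for decreases in intracellular ATP (CellTiter-Glo luminescence). LYMP2-006 lymphoblastoid cells, 2500 per well, were exposed to compound in complete culture medium for 24 hr at 37 C.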
# [8] = Cell Viability - LYMP2-008 (AID 980); conditions: LYMP2-008 lymphoblastoid cell viability, qHTS; further: potency means the concentration at half of the fitted maximal effect; nearly all actives have a fitted effect of over 60% in size
# Outline: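 Cells seeded at 2500/well and rested 5 hr at 37 C; compounds added over a concentration range and incubated 24 hr at 37 C; CellTiter-Glo added, 30 min at room temperature; luminescence read and AC50 fitted with Hill model.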
# [9] = Cell Viability - LYMP2-018 (AID 985);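 further: potency means the concentration at half of the fitted maximal effect; compound exposure lasted 24 hr at 37 °C; nearly all actives have a fitted effect of over 50% in size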
# Outline: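 Seed 2500 lymphoblastoid cells per well, incubate 5 hr at 37 C, add compound and incubate 24 hr at 37 C, add CellTiter-Glo, wait 30 min at room temperature, then read luminescence.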
# [10] = Cell Viability - LYMP2-020 (AID 986); conditions: activity change, negative = viability loss: at 92.2 µM (top of the series); further: potency means the concentration at half of the fitted maximal effect; nearly all actives have a fitted effect of over 55% in size
# Outline: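 Seed 2500 cells per well and incubate 5 hr at 37 C. Add compounds at a concentration series and incubate 24 hr at 37 C. Add CellTiter-Glo, wait 30 min at RT, read luminescence, and fit a Hill curve for AC50.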
# [11] = Cell Viability - LYMP2-026 (AID 989); further: potency means the concentration at half of the fitted maximal effect; nearly all actives have a fitted effect of over 50% in size
# Outline: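 Cells are seeded at 2500 per well and held 5 hr at 37 C. Compounds are added in concentration series for 24 hr, then CellTiter-Glo reagent is applied and luminescence read.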
# [12] = biological target: Bile acid receptor (Homo sapiens) (UniProt Q96RI1); experiment: qHTS assay for small molecule antagonists of farnesoid X receptor signaling (AID 588526; calls by dose curve; further: potency means the concentration at half of the fitted maximal effect); conditions: HEK293T FXR-UAS-bla, beta-lactamase ratio, antagonist mode; activity change, negative = inhibition: at 76.7 µM (top of the series)
# Outline: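 Concentration-response titrations were fitted to the Hill equation for half-maximal inhibition and maximal response, with data normalised to 50 uM chenodeoxycholic acid and DMSO control wells. Cells: FXR-UAS-bla HEK293T, dialyzed FBS.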
# [13] = biological target: Glucocorticoid receptor (Homo sapiens) (UniProt P04150); experiment: qHTS assay for small molecule agonists of glucocorticoid receptor signaling (AID 588532; active means well fitted curve in the direction sought with a large enough effect in the signal ratio, with a control signal flat; inconclusive means small, poorly fitted or top-dose-only effect, or a change in a side signal; inactive means no such curve, though single readings can be large or run the other way; the % refers to the signal ratio; further: potency means the concentration at half of the fitted maximal effect); conditions: HeLa MMTV-bla, beta-lactamase ratio, agonist, 18 h; activation: active compounds read high, percent of dexamethasone control, DMSO zero
# Outline: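 MMTV-bla HeLa, beta-lactamase reporter; medium with 1% charcoal/dextran-stripped FBS; cpds up to 92 uM, 18 h, 37 C; CCF4 readout 460/530 nm; Hill fit → EC50, efficacy vs 0.1 uM dexamethasone = 100%.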
# [14] = biological target: Glucocorticoid receptor (Homo sapiens) (UniProt P04150); experiment: qHTS assay for small molecule antagonists of glucocorticoid receptor signaling (AID 588533; active means well fitted inhibition curve with a large enough effect in the signal ratio, with a control signal flat, not every such curve was filed as active; inconclusive means small, poorly fitted or top-dose-only effect, or effect the other way, or a change in a side signal; the % refers to the signal ratio;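 further: cells stimulated with 2 nM dexamethasone as agonist; on the % scale 0 is the no-effect control and ±100 the full control effect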); conditions: HeLa MMTV-bla, GRE beta-lactamase ratio, antagonist mode, 18 h; activity change, negative = inhibition: at 76.8 µM (top of the series)
# [15] = biological target: Peroxisome proliferator-activated receptor gamma (Homo sapiens) (UniProt P37231); experiment: qHTS assay for small molecule agonists of peroxisome proliferator-activated receptor gamma signaling (AID 588536; active means well fitted curve in the direction sought with a large enough effect in the signal ratio, with a control signal flat, not every such curve was filed as active; inconclusive means small, poorly fitted or top-dose-only effect, or effect the other way, or a change in a side signal; inactive means no such curve, though single readings can be large or run the other way; the % refers to the signal ratio; further: potency means the concentration at half of the fitted maximal effect); conditions: HEK293 PPARg-UAS-bla, beta-lactamase ratio, 16 h; activation: at 76.7 µM (top of the series), percent of rosiglitazone response, DMSO as zero
# Outline: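 Beta-lactamase reporter read-out: CCF4 fluorescence (ex 405, em 460/530 nm) after 2 h at RT. HEK293 GeneBLAzer cells were treated for 16 h at 37 C. Hill fits gave EC50 and efficacy versus 2 uM rosiglitazone (100%) and DMSO (0%).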
# [16] = biological target: Peroxisome proliferator-activated receptor gamma (Homo sapiens) (UniProt P37231); experiment: qHTS assay for small molecule antagonists of peroxisome proliferator-activated receptor gamma signaling (AID 588537; active means well fitted inhibition curve with a large enough effect in the signal ratio, with a control signal flat, not every such curve was filed as active; inconclusive means small, poorly fitted or top-dose-only effect, or effect the other way, or a change in a side signal; the % refers to the signal ratio;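 further: reporter cells co-stimulated with 50 nM rosiglitazone agonist during compound treatment; % of control where 0% means no effect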); conditions: HEK293 PPARg-UAS-bla, beta-lactamase ratio, antagonist mode; activity, negative = inhibition: at 76.8 µM (top of the series)
# Outline: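 Compounds are tested as concentration series for inhibition of rosiglitazone-driven (50 nM) reporter expression in GeneBLAzer PPAR-gamma-UAS-bla HEK293 cells. After 16 h at 37 C, CCF4 substrate is added for 2 h at room temperature and blue/green fluorescence is measured.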
# [17] = biological target: Retinoic acid receptor RXR-alpha (Homo sapiens) (UniProt P19793); experiment: qHTS assay for small molecule agonists of retinoid X receptor alpha signaling (AID 588544; calls by dose curve; further: potency means the concentration at half of the fitted maximal effect); conditions: HEK293T RXRa-UAS-bla, beta-lactamase reporter, 18 h; activation: at 76.7 µM (top of the series) unless noted
# [18] = biological target: Retinoic acid receptor RXR-alpha (Homo sapiens) (UniProt P19793); experiment: qHTS assay for small molecule antagonists of retinoid X receptor alpha signaling (AID 588546; active means well fitted inhibition curve with a large enough effect in the signal ratio, with a control signal flat, not every such curve was filed as active; inconclusive means small, poorly fitted or top-dose-only effect, or effect the other way, or a change in a side signal; inactive means no such curve, though single readings can be large or run the other way; the % refers to the signal ratio;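 further: cells stimulated with 9-cis-retinoic acid as agonist; on the % scale 0 is the no-effect control and ±100 the full control effect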); conditions: HEK293T RXRa-UAS-bla, beta-lactamase ratio, antagonist mode
# Outline: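 Beta-lactamase reporter inhibition, read as CCF4 fluorescence ratio (ex 405, em 460/530 nm) after 2 h at RT. HEK293T UAS-bla cells, 2500/well, were stimulated with 9-cis-RA at 500 or 100 nM final alongside test compound for 18 h at 37 C.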
# [19] = biological target: Thyroid hormone receptor beta (Homo sapiens) (UniProt P10828); experiment: qHTS assay for small molecule antagonists of thyroid hormone receptor beta signaling (AID 588547; active means well fitted inhibition curve with a large enough effect in the signal ratio, with a control signal flat, not every such curve was filed as active; inconclusive means small, poorly fitted or top-dose-only effect, or effect the other way, or a change in a side signal; the % refers to the signal ratio;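 further: cells stimulated with 0.4 nM T3 agonist during compound exposure; on the % scale 0 is the no-effect control and ±100 the full control effect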); conditions: TR-UAS-bla HEK293, beta-lactamase ratio, antagonist mode, 18 h
# Outline: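 TR-UAS-bla GripTite HEK293 cells in 2% charcoal/dextran FBS medium were preincubated 4 h at 37 C, given compound (0.59 nM to 92 uM) plus 0.4 nM T3 (final) for 18 h, then CCF4 for 2 h at RT; Hill fit gave IC50.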
# [20] = qHTS assay for small molecule agonists of the antioxidant response element (ARE) signaling pathway (AID 651741; active means well fitted activation curve with a large enough effect in the signal ratio; inconclusive means small, poorly fitted or top-dose-only effect, or effect the other way, or a change in a side signal; the % refers to the signal ratio; further: potency means the concentration at half of the fitted maximal effect); conditions: HepG2 ARE-bla reporter, beta-lactamase FRET ratio, 16 h; activation: at 96 µM (top of the series) unless noted
# Outline: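 Reporter: beta-lactamase under ARE, stably in HepG2. Exposure: 16 h, 37 C, compounds delivered in DMSO by pin tool after 5 h cell preincubation. Readout: FRET substrate fluorescence after 2 h at RT.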
# [21] = qHTS assay to identify small molecules that stimulate interleukin-8 (IL-8) secretion (AID 651758; active means well fitted activation curve with a large enough effect in the signal ratio; inconclusive means small, poorly fitted or top-dose-only effect, or effect the other way, or a change in a side signal; the % refers to the signal ratio; further: potency means the concentration at half of the fitted maximal effect); conditions: HTRF ratio (665/615); activation: at 92.2 µM (top of the series)
# Outline: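 Quantitative HTS in THP-1 monocytic cells at 2000 cells per well, with 16 hrs compound incubation at 37 C. IL-8 in the medium was then quantified by HTRF immunoassay, read after 1-3 hrs at room temperature.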
# [22] = biological target: Nuclear receptor ROR-gamma (Homo sapiens) (UniProt P51449); experiment: qHTS assay for small molecule antagonists of the retinoid-related orphan receptor gamma (ROR-gamma) signaling pathway (AID 651802); further: potency means the concentration at half of the fitted maximal effect; nearly all actives have a fitted effect of over 60% in size
# Outline: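 Steps: cells dispensed; compound or DMSO transferred by pin tool; doxycycline added to induce the ROR response element-driven luciferase; plates held 16hr at 37C; ONE-Glo added and luminescence measured.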
# [23] = qHTS assay for small molecule agonists of the antioxidant response element (ARE) signaling pathway measured by Nrf2-dependant transcriptional activity (AID 720636; active means well fitted curve in the direction sought with a large enough effect in the repeat runs; inconclusive means weak or mixed curves; inactive means no such curve, though single readings can be large; an effect the other way counts as inactive or inconclusive; further: potency means the concentration at half of the fitted maximal effect)
# Outline: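 Nrf2-dependent transcription read as ONE-Glo luciferase signal from ARE-luc HepG2 reporter cells after 16 hr compound treatment at 37 C, 5% CO2, in assay medium with 1% dialyzed FBS.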
# [24] = qHTS assay for cell viability of HEK293 cells (AID 743288); conditions: ATP luminescence (CellTiter-Glo), 18 h; max response: active compounds read low; further: potency means the concentration at half of the fitted maximal effect; nearly all actives have a fitted effect of over 50% in size
# Outline: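 Readout is luciferase-coupled ATP content (CellTiter-Glo luminescence, 30 min room temperature) as a measure of metabolically competent cells. Parental HEK293 cells were plated 5 h or more before compound addition, then treated 18 h at 37 C.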
compound,measurement,setting,value
CC1=C(/C=C/C(C)=C/C=C/C(C)=C/C=O)C(C)(C)CCC1,Potency,[1],active: 50.1 µM
same,Potency,[2],active: 50.1 µM
same,Potency,[3],active: 39.8 µM
same,Potency,[4],active: 39.8 µM
same,Potency,[5],active: 39.8 µM
same,Potency,[6],"inconclusive: 79.4 µM [cytotoxic, single point]"
same,Potency,[7],active: 63.1 µM
same,Potency,[8],active: 39.8 µM
same,Potency,[9],active: 39.8 µM
same,Potency,[10],"inconclusive: 50.1 µM [cytotoxic, partial curve, poor fit]"
same,Potency,[11],active: 50.1 µM
same,Potency,[12],"inconclusive: 0.0158 µM [inhibitor, full curve, poor fit]"
same,Potency,[13],"inconclusive: 5.01 µM [side channel, falling, full curve]"
same,"activity change, negative = inhibition",[14],inconclusive: 4.12%
same,Potency,[15],"inconclusive: 2.82 µM [activator, full curve, poor fit]"
same,"activity, negative = inhibition",[16],inconclusive: -27.3%
same,Potency,[17],"inconclusive: 0.794 µM [activator, full curve]"
same,max response,[18],inactive: -29.6%
same,activity change % (negative = inhibition),[19],inconclusive: -49.9%
same,Potency,[20],active: 29.8 µM
same,Potency,[21],active: 0.422 µM
same,Potency,[22],"inconclusive: 29.8 µM [inhibitor, partial curve, poor fit]"
same,Potency,[23],"inconclusive: 42.2 µM [activator, partial curve, poor fit]"
same,Potency,[24],"inconclusive: 50.1 µM [cytotoxic, single point]"

# As a short view, part of the list above.
compound,measurement,setting,value
CC1=C(/C=C/C(C)=C/C=C/C(C)=C/C=O)C(C)(C)CCC1,Potency,[5],active: 39.8 µM
same,Potency,[6],"inconclusive: 79.4 µM [cytotoxic, single point]"
same,Potency,[7],active: 63.1 µM
same,Potency,[8],active: 39.8 µM
same,Potency,[9],active: 39.8 µM
same,Potency,[10],"inconclusive: 50.1 µM [cytotoxic, partial curve, poor fit]"
same,Potency,[11],active: 50.1 µM
